Screening data

Data taken from PubChem BioAssay AID1963582, deposited by Tox21 (2024).

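Potency is fitted from the concentration series in HCT-116 p53 reporter cells, read as a beta-lactamase fluorescence ratio at 16 h.
The concentration series mostly goes up to 66 µM.
Potency is the fitted concentration that gives half the maximal activation; a lower value means a more potent compound.
Calls are based on the whole dose curve, and inconclusive means weak or mixed curves.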

Values are in µM.
All entries here are filed as inconclusive.
These entries are mostly ones the record files as inconclusive; other results of the assay are not listed here.
Potencies fitted to partial, single-point or poorly fitting curves are rough.
Some entries filed as inconclusive have a full curve.
The first word of each remark tells which way the curve ran; it can be opposite to the aim of the assay.

structure,Potency (µM),curve
CC(C)(c1ccc(OCC2CO2)cc1)c1ccc(OCC2CO2)cc1 (stereo not drawn),46.36,fluorescent
O=[N+]([O-])c1ccc(O)cc1,0.4078,"falling, single point"
CCCCCCCC/C=C\CCCCCCCCOCCO,26.57,"falling, full curve"
c1ccc2c(c1)-c1ccc3ccc4cccc5cc-2c1c3c45,2.814,"fluorescent, full curve"
Cc1cc(O)c2c(c1)C(=O)c1cc(O)cc(O)c1C2=O,6.317,"fluorescent, partial curve, poor fit"
O=C(CCl)Nc1ccccc1,51.34,"fluorescent, single point"
CCCOc1ccc2nc(NC(=O)OC)[nH]c2c1,0.2508,activator
Cc1c(Cl)cccc1Nc1ccccc1C(=O)O,7.93,"rising, partial curve, poor fit"
O=C(O)CCCc1ccc(N(CCCl)CCCl)cc1,45.75,activator
Cc1c(Cl)c(=O)oc2cc(O)ccc12,40.78,"fluorescent, partial curve"
CN1CCN(C2Cc3ccccc3Sc3ccc(Cl)cc32)CC1 (stereo not drawn),14.1,"rising, partial curve"
Oc1c(I)cc(I)cc1I,28.87,"activator, partial curve, poor fit"
CCCCCCCCCCCC[N+](C)(C)C,5.747,"fluorescent, full curve"
CCOP(=S)(OCC)SCn1c(=O)oc2cc(Cl)ccc21,19.54,"fluorescent, single point"
Nc1c(CC(=O)O)cccc1C(=O)c1ccc(Br)cc1,14.1,"rising, partial curve"
COC(=O)Nc1nc2ccc(C(=O)c3cccs3)cc2[nH]1,9.983,"fluorescent, partial curve"
CCC[CH2][Sn]([Cl])([CH2]CCC)[CH2]CCC,10.24,"falling, full curve"
CN(C)CCCN1c2ccccc2Sc2ccc(C(F)(F)F)cc21,8.897,"fluorescent, partial curve"
CN(C)c1ccc(C(=C2C=CC(=[N+](C)C)C=C2)c2ccc(N(C)C)cc2)cc1,43.82,-
Oc1ccc(C2(c3ccc(O)cc3)CCCCC2)cc1,48.64,single point
O=Nc1ccc(Nc2ccccc2)cc1,45.75,"activator, single point"
CCCCOC(=O)c1ccccc1C(=O)OCc1ccccc1,25.73,"rising, partial curve, poor fit"
Nc1ccc2c3c(cccc13)-c1ccccc1-2,32.74,"fluorescent, partial curve"
Cc1cc(C(C)(C)c2cc(C)c(O)c(C)c2)cc(C)c1O,15.7,activator
CC(CN(C)C)CN1c2ccccc2CCc2ccccc21 (stereo not drawn),0.3974,"rising, full curve"
CCCCOCN(C(=O)CCl)c1c(CC)cccc1CC,12.9,-
[Cl][Sn]([c]1ccccc1)([c]1ccccc1)[c]1ccccc1,0.9725,"fluorescent, partial curve"
COC(=O)C1=C(C)NC(C)=C(C(=O)OCC(C)C)C1c1ccccc1[N+](=O)[O-] (stereo not drawn),45.75,"rising, single point"
COc1cccc2c1cc([N+](=O)[O-])c1c(C(=O)O)cc3c(c12)OCO3,36.34,"fluorescent, partial curve"
O=P(OCC(Br)CBr)(OCC(Br)CBr)OCC(Br)CBr (stereo not drawn),23.23,"fluorescent, partial curve, poor fit"
NC(=O)N/N=C/c1ccc([N+](=O)[O-])o1,45.75,-
Nc1ccn(C2CO[C@H](CO)O2)c(=O)n1 (stereo partly drawn),0.1257,"falling, single point"
CCCCCCCCCCCCCC[n+]1ccccc1,51.34,"falling, single point"
CCCOc1sc(C(=O)N2CCC(c3cc(CN)ccc3F)CC2)c(C)c1Br,18.73,"rising, single point"
CC(O)C#CC(C)O (stereo not drawn),50.85,activator
Cc1cccc(Br)c1,32.58,"rising, partial curve, poor fit"
Clc1ccc(Cn2c(CN3CCCC3)nc3ccccc32)cc1,22.35,"rising, single point"
CCCCCCCCCCCCCCCC[N+](C)(C)Cc1ccccc1,25.08,single point
OCCN1CCN(CCO)CC1,1.056,"falling, single point"
CCOc1cccc(-n2cc(C(=O)N3CCN(c4cc(C(=O)O)c5ccccc5c4)CC3)nc2-c2ccc(C)cc2)c1,30.92,"falling, partial curve, poor fit"
C[C@]12CC[C@@H]3c4ccc(OC(=O)N(CCCl)CCCl)cc4CC[C@H]3[C@@H]1CC[C@@H]2O,22.35,activator
CCCCCCOC(=O)c1ccccc1C(=O)OCCCCCC,14.47,"rising, partial curve, poor fit"
CCOc1ccc([N+](=O)[O-])cc1,52.11,single point
CC(=O)Oc1ccc(C(c2ccc(OC(C)=O)cc2)c2ccccn2)cc1,1.582,"fluorescent, full curve"
CCCN(CCC)c1c([N+](=O)[O-])cc(C(C)C)cc1[N+](=O)[O-],15.9,"rising, partial curve"
O=c1[nH]cnc2ccccc12,0.0017,"rising, full curve, poor fit"

6 of the entries, repeated:

- CCCCCCCCCCCC[N+](C)(C)C : Potency 5.747 µM (fluorescent, full curve)
- CCC[CH2][Sn]([Cl])([CH2]CCC)[CH2]CCC : Potency 10.24 µM (falling, full curve)
- C[C@]12CC[C@@H]3c4ccc(OC(=O)N(CCCl)CCCl)cc4CC[C@H]3[C@@H]1CC[C@@H]2O : Potency 22.35 µM (activator)
- Clc1ccc(Cn2c(CN3CCCC3)nc3ccccc32)cc1 : Potency 22.35 µM (rising, single point)
- CCOc1ccc([N+](=O)[O-])cc1 : Potency 52.11 µM (single point)
- CC(=O)Oc1ccc(C(c2ccc(OC(C)=O)cc2)c2ccccn2)cc1 : Potency 1.582 µM (fluorescent, full curve)